From paper PMC11274643, “Design, Synthesis, Characterization, and Cytotoxicity of New Pyrazolylmethylene-2-thioxoimidazolidin-4-one Derivatives towards Androgen-Sensitive LNCaP Prostate Cancer Cells” (Biomolecules, 2024)

How the values were obtained:
[1] = system: AR-PC-3 androgen-insensitive human prostate cancer cell line; assay: MTT in vitro cytotoxicity assay, 24 h incubation; format: cell-based
Experimental: (§1) The antitumor properties of pyrazolylmethylene-2-thioxoimidazolidin-4-one derivatives (3a–p) against androgen-sensitive (AR^+LNCaP; ATCC CRL-1740, Accession: CVCL_0395) and androgen-insensitive (AR^-PC-3; ATCC CRL-1435, Accession: CVCL_D5ZS) human prostate cancer cell lines in addition to normal human lung fibroblast cell line (Wi38, Accession: CVCL_2759) were evaluated by MTT assay. AR^+LNCaP, AR^-PC-3, and Wi38 cell lines were purchased frozen in liquid nitrogen from Egyptian Company for Production of Vaccines, Sera and Drugs, Cairo, Egypt (VACSERA). Tumor cell lines were stored as monolayer cultures in DMEM supplemented with 10% FBS and 1% penicillin–streptomycin. MTT assay was carried out as described previously in the literature. In brief, AR^+LNCaP, AR^-PC-3, and Wi38 cells were cultured into 96-well plates containing 100 µL of culture medium per each well. Cells were incubated with dilution series compounds (3a–p) to give a final concentration of 10, 25, 50, 75, 100, 200, 300, 500, 750, and 1000 ug/mL. A control containing only culture medium was also applied. […] Absorbance at 550 nm was measured. The formula (Reading of extract/Reading of negative control) × 100 was applied to calculate the viability percentage. The IC50 value of test compounds (3a–p) was also determined using CPE measurements of normal Wi38 cells (normal human lung fibroblast cells). […]

[2] = system: Wi38 normal human lung fibroblast cell line; assay: MTT in vitro cytotoxicity assay, 24 h incubation; format: cell-based; details: WI-38
Experimental: as §1

[3] = system: AR-PC-3 androgen-insensitive human prostate cancer cell line; assay: MTT cytotoxicity assay in presence of 1 nM DHT, 48 h incubation; format: cell-based
Experimental: as §1, with “Cells were incubated with dilution series compounds (3a–p) to give a final concentration of 10, 25, 50, 75, 100, 200, 300, 500, 750, and 1000 ug/mL.” left out, “applied. The assay was performed in triplicate. The cells were incubated overnight to grow at 37 °C in 5% CO2.” for “applied.”

[4] = system: Wi38 normal human lung fibroblast cell line; assay: as above; format: cell-based; details: WI-38, read-out: IC50 Wi38
Experimental: as §1, with “Cells were incubated with dilution series compounds (3a–p) to give a final concentration of 10, 25, 50, 75, 100, 200, 300, 500, 750, and 1000 ug/mL.” left out, “applied. The assay was performed in triplicate. The cells were incubated overnight to grow at 37 °C in 5% CO2.” for “applied.”

[5] = system: AR+LNCaP cells; assay: DNA content at cell cycle stages (Propidium Iodide flow cytometry); format: cell-based, human; details: IC50 concentration, 1 nM DHT
Experimental: The amount of DNA contents of AR^+LNCaP cells stimulated with 1 nM DHT and treated with representative test compounds 3i and 3k at the different stages of the cell cycle were quantitatively evaluated as described previously. Untreated AR^+LNCaP and Enzalutamide-treated AR^+LNCaP were used as negative and positive controls, respectively. The Ab139418–Propidium Iodide Flow Cytometry Kit for Cell Cycle Analysis (ab139418, Abcam, Cambridge, UK) was employed for this assay following the procedures provided by the supplier.
The synthesized compounds 3i and 3k, that induced higher production of Caspase 3 in AR^+LNCaP cells (Figure 4), were further analyzed. […] The IC50 concentrations of the test compounds were applied in the presence of 1 nM DHT. Firstly, the ab139418-Propidium Iodide Flow Cytometry Kit for Cell Cycle Analysis (Bio vision, Boston, MA, USA) was used to quantify DNA contents at each cell cycle stage as an indicator of the cell cycle growth arrest.

Work on CNC(=O)c1ccc(N2C(=S)N(c3ccc(C#N)c(C(F)(F)F)c3)C(=O)C2(C)C)cc1F [Enzalutamide, reference compound] yielded an IC50 [1] of 15.3 ± 0.19 µM, an IC50 [2] of 27.5 ± 0.36 µM and an IC50 [3] of 13.6 ± 0.27 µM. For the same compound, the CC50 [4] was 21.5 ± 0.32 µM and the “DNA Content (%) S” value [5] was 13.61%.
